# Measured values taken from PubChem BioAssay AID2099 (Broad Institute, 2009).
# Chains of the proteins cited; added tags and fusions are not shown. Residues count along the entry.
# UniProt Q9H3R0, 1-420 limits assumed: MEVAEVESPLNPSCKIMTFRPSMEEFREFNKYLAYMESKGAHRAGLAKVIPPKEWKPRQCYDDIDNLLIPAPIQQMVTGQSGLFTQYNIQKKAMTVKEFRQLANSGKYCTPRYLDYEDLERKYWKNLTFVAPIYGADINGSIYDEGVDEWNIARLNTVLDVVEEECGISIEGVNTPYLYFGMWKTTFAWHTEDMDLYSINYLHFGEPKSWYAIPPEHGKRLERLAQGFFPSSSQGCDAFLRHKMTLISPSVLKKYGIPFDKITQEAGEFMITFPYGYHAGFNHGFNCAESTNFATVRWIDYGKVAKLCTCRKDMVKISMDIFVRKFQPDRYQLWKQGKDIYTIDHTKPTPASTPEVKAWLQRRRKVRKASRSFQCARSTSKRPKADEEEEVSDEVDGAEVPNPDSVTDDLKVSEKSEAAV
# The whole screen tested about 330,000 compounds, of which about 230 (0.07%) were called active. Inconclusive results, whose numbers are uncertain, are shown with a selection of clear calls.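 The calls were made as follows: active = more than half of a compound's replicate wells show inhibition beyond 50%, single wells judged on their own value; inconclusive = some, but no more than half, of replicates pass 50% inhibition; inactive = no replicate passes 50% inhibition.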
# Target: Lysine-specific demethylase 4C (Homo sapiens) (UniProt Q9H3R0)
# Assay: inhibitors of GASC-1 histone demethylase, primary screen, biochemical, fluorescence, DELFIA europium (AID 2099);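 also: signal counts dimethyl H3K9 product captured on neutravidin plate; 0% = median of DMSO wells and 100% = 0.3 times that DMSO median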
# Conditions: GST-JMJD2C(1-420) H3K9me3 demethylation, at 2.35 µM, stronger effect = higher value
row,Structure (SMILES),inhibition
1,S=C(NCCc1ccccc1)NC1CCCCCC1,inactive: 0.344%
2,COc1ccc(S(=O)(=O)NCc2ccccn2)cc1NC(=O)c1ccccc1C,inconclusive: -174%
3,Oc1ccc(/C=N/n2c(-c3ccco3)csc2=Nc2cccnc2)c(O)c1,inactive: 10.3%
4,CC1CN(C(=O)CSc2nnc(-c3ccncc3)n2-c2ccccc2)CC(C)O1 (stereo not drawn),inconclusive: -228%
5,Cc1cccc(N(C(=O)CNC(=O)c2cccs2)C(C(=O)NC2CCCC2)c2cccnc2)c1 (stereo not drawn),inconclusive: -116%
6,CCN(CC)S(=O)(=O)c1cccc(NC(=O)CSc2nc3ccccc3[nH]2)c1,inconclusive: -52.1%
7,COC(C/C=C/C(=O)COCc1ccccc1)OC,inconclusive: -55.9%
8,OC1(c2cccc(F)c2)CCN(Cc2ccncc2)CC1,active: 68.7%
9,COC(=O)N1CCCc2cc(C)ccc21,inconclusive: -69.8%
10,C=CCC1(CC=C)CCCN1C(=O)c1cc(COc2ccc(-n3cncn3)cc2)on1,inconclusive: -61.2%
11,COc1ccc(C(=O)On2c(-c3ccc(Br)cc3)nc3ccccc3c2=O)cc1,inactive: 11.1%
12,Cc1ccc(C)c(-n2c(N)c(C(N)=O)sc2=S)c1,inconclusive: -76.7%
13,Cc1ccc(NC(C)C(=O)N/N=C/c2c[nH]c3ccccc23)cc1 (stereo not drawn),inconclusive: -51.6%
14,COc1ccc(/C=N/n2c(=O)[nH]c3c([nH]c4ccc(Br)cc43)c2=O)cc1CN1CCOCC1,inactive: 32.2%
15,CNC[C@@H]1Oc2c(NC(=O)Nc3ccccc3)cccc2C(=O)N([C@@H](C)CO)C[C@H]1C,active: 50.9%
16,CCOc1ccccc1NC(=O)C(=O)N/N=C/c1cc(Br)ccc1O,inactive: -24.3%
17,COCCn1ccc2c(OCC(=O)Nc3cc(OC)ccc3OC)cccc2c1=O,inconclusive: -164%
18,CCN(CC)C(=O)Cn1cc(C(=O)C(=O)N(CC)C2CCCCC2)c2ccccc21,inconclusive: -50.2%
19,COCCN(C(=O)CNC(=O)c1ccco1)C(C(=O)NC1CCCCC1)c1cccs1 (stereo not drawn),inconclusive: -49.2%
20,NC(=O)COC(=O)CCSc1ccc(Cl)cc1,inactive: 3.25%
21,O=C(Nc1ccsc1C(=O)O)c1ccccc1,inconclusive: -114%
22,NC(=O)NC(=O)CSc1nnc(-c2ccco2)n1Cc1ccccc1,active: 50.3%

row,Structure (SMILES),inhibition
1,Clc1ccc(N=c2ssnc2Cl)cc1,inconclusive: -97.6%
2,CCc1ccccc1OCCCCCNCCO,inconclusive: -95.4%
3,O=C(CCN1C(=O)/C(=C\c2ccccc2)SC1=S)NNC(=O)c1ccncc1,inconclusive: -57.1%
4,CC(/C=C/c1ccc(C)o1)=C\C(=O)O,inactive: -6.36%
5,O=C(Nc1ccccc1N1CCOCC1)c1ccccc1NS(=O)(=O)c1ccc(F)cc1,inactive: -0.201%
6,OCCNCc1cccc(OCc2ccc(Cl)cc2)c1,inconclusive: -65%
7,COc1cccc(NC(=O)Cn2cnc3c(oc4nc5c(cc43)CCCC5)c2=O)c1,inconclusive: -95.3%
8,Cc1ccc(C)c(S(=O)(=O)/N=C2\C=C(NS(=O)(=O)c3ccccc3)C(=O)c3ccccc32)c1,inactive: 13.9%
9,CCc1noc(C)c1C(=O)Nc1nc(-c2cc(C)ccc2C)c(C)s1,inconclusive: -316%
10,O=c1[nH]c(NCCO)nnc1Cc1ccc(Cl)cc1,inconclusive: -50.8%
11,CCCCOC(=O)CCN1C(=O)/C(=C2\SC(=S)N(CCC(=O)OCCCC)C2=O)SC1=S,inactive: 0.867%
12,Cc1nc2ccccc2c(=O)n1-c1ccc(NS(=O)(=O)c2cc(F)ccc2F)cc1,inconclusive: -199%
13,COc1cc(OC)c2ccc(=O)oc2c1C(CC(=O)N1CCN(c2ccccc2)CC1)c1ccc2c(c1)OCO2 (stereo not drawn),inactive: 0.186%
14,Cc1ccc(-n2cc(-c3ccccc3)c3c(N4CCOCC4)ncnc32)cc1,inconclusive: -90.5%
15,Cc1cc(C)cc(C(=O)NCCC(=O)NCc2cc(=O)n(C)c(=O)n2C)c1,inconclusive: -169%
16,Cc1ccc2c(c1)c(C)cc[n+]2Cc1ccccc1,inactive: 2.5%
17,Cc1ccc(NC(=O)CSc2nnc(CNC(=O)c3ccco3)n2C)cc1,inconclusive: -76.7%
18,CCOc1ccc(NC(=O)CCN2C(=O)C3CCCCC3C2=O)cc1OCC (stereo not drawn),inactive: -32.2%
19,Cc1cc2c(s1)c1cnn(Cc3ccccc3F)c(=O)c1n2C,inactive: 5.32%
20,Cc1cccc(N(CC(=O)Nc2ccccc2-c2ccccc2)S(=O)(=O)c2ccccc2)c1C,inactive: -1.11%
21,Cc1cc(C)c2nc(N(CCCN(C)C)C(=O)c3ccc4c(c3)CCCC4)sc2c1,inconclusive: -62.1%
22,CCOc1ccc(NC(=O)CN2CCN(CC(=O)Nc3ccc(N(C)C)cc3)CC2)cc1,inactive: 6.35%

row,Structure (SMILES),inhibition
1,COc1cc(-n2c(-c3ccccc3)n[nH]c2=S)c(OC)cc1Cl,inactive: 25.3%
2,Cc1cc(C(=O)N/N=C/c2cc([N+](=O)[O-])ccc2O)c2ccccc2n1,inactive: 13.9%
3,Cc1c(OCC(=O)NCCCN2CCCC2=O)ccc2c3c(c(=O)oc12)CCCC3,inconclusive: -87.8%
4,Cc1ccc(OCC(=O)Nc2nc(-c3ccccn3)cs2)c(C)c1,inactive: 1.62%
5,CCCN(c1ccc(C(C)C)cc1)S(=O)(=O)c1c(C)[nH]c(=O)[nH]c1=O,inconclusive: -151%
6,COC(=O)c1ccc(C(=O)Nc2ccc(C(C)C)cc2N)cc1,inactive: -20.3%
7,COc1ccccc1Nc1nc(Cl)nc(NC(C)(C)C)n1,inconclusive: -71.1%
8,COc1cccc(-c2cc(C(=O)Nc3ccccc3SC)no2)c1,inconclusive: -201%
9,Cc1cc(/C=N\NC(=O)CC(=O)NC2CCCCC2)c(C)n1-c1ccc(Cl)c(Cl)c1,inconclusive: -164%
10,Brc1ccccc1CN1CCC(N2CCCCC2)CC1,inconclusive: -25.3%
11,COc1ccccc1N=Cc1c(C)[nH]n(-c2ccc(C)cc2C)c1=O,inactive: 7.56%
12,CCN(CC(=O)Nc1ccc(OC)cc1)C(=O)c1oc2c(Cl)cccc2c1C,inconclusive: -97.8%
13,Cc1cccc(CCNC(=O)Cn2ncc3c([nH]c4ccccc43)c2=O)c1,inconclusive: -119%
14,CC(C)CC(=O)NC(=S)Nc1ccccn1,inconclusive: -73.5%
15,Cc1ccc(C)c(N2N=C(C(=O)NCCN3C(=O)S/C(=C\c4cccnc4)C3=O)CCC2=O)c1,inactive: 7.83%
16,CC(Oc1cc2oc(=O)c3c(c2cc1Cl)CCCC3)C(=O)NCCN1CCOCC1 (stereo not drawn),inconclusive: -103%
17,Cc1nc(-c2ccc(F)cc2)c(CC(=O)N2CCN(S(=O)(=O)c3ccccc3Br)CC2)s1,inactive: -2.64%
18,CN(C(=O)COc1ccc(Cl)cc1)C1(C)CCS(=O)(=O)C1 (stereo not drawn),inconclusive: -103%
19,O=C(CSc1n[nH]c(-c2cccs2)n1)N1CCN(S(=O)(=O)c2ccc3ccccc3c2)CC1,inactive: 11.4%
20,CCN1CCN(CCOc2cccc(Cl)c2Cl)CC1,inactive: -40.6%
21,CCC(C)NC(=O)[C@@H]1CCCN1C(=O)C1CCN(S(=O)(=O)c2ccc(C)cc2)CC1 (stereo partly drawn),inactive: -23.9%
22,CCC(C)[C@H](NC(=O)[C@@H]1CSC2c3ccccc3C(=O)N21)C(=O)NCC1CCCO1 (stereo partly drawn),inconclusive: -67.8%

# 3 compounds drawn at random from those above:
row,Structure (SMILES),inhibition
17,Cc1nc(-c2ccc(F)cc2)c(CC(=O)N2CCN(S(=O)(=O)c3ccccc3Br)CC2)s1,inactive: -2.64%
19,O=C(CSc1n[nH]c(-c2cccs2)n1)N1CCN(S(=O)(=O)c2ccc3ccccc3c2)CC1,inactive: 11.4%
18,CN(C(=O)COc1ccc(Cl)cc1)C1(C)CCS(=O)(=O)C1 (stereo not drawn),inconclusive: -103%

# (cont.)

row,Structure (SMILES),inhibition
1,CCOc1c2ccc(C(=O)NCCCCc3ccccc3)cc2nn1CC,inconclusive: -75%
2,CC1=NN(c2ccccc2)C(=O)C1,inconclusive: -32.4%
3,O=C(O)c1cccc(NC(=O)c2ccccc2NC(=O)c2ccco2)c1,inconclusive: -83.4%
4,Cc1cc(C)nc(NCc2ccc(Cl)cc2)n1,active: 68.1%
5,CC(C)Cc1nnc(NC(=O)C2CSC3(C)CCC(=O)N23)s1 (stereo not drawn),inconclusive: -31.8%
6,Nc1ccn(CC(=O)NCc2ccccn2)c(=O)n1,inactive: 1.99%
7,COc1cccc(C(C[N+](=O)[O-])c2c(C)[nH]n(-c3ccccc3)c2=O)c1 (stereo not drawn),active: 68.9%
8,COc1ccc(OCC(=O)Nc2cccc(NC(=O)COc3ccc(OC)cc3)n2)cc1,inconclusive: -70.7%
9,O=C(O)CCNC(=O)c1ccccc1,inconclusive: -28.5%
10,COc1cc(C(C[N+](=O)[O-])c2c(N)n(C)c(=O)n(C)c2=O)ccc1O (stereo not drawn),inconclusive: -92.4%
11,Cc1oc2c(O)c(O)ccc2c(=O)c1-c1ccccc1,inconclusive: -39.6%
12,Cn1c2ccccc2c2cc(C(=O)OCC(=O)N3CC(=O)Nc4ccccc43)sc21,inactive: -50.9%
13,COc1ccc(C(C#N)=C2C=CC(=NO)C=C2)cc1,inconclusive: -50.3%
14,O=C(CS(=O)(=O)c1ccccc1)Nc1nccs1,inactive: -11.6%
15,CCCc1cc(=O)oc2c(C)c(OCC(=O)Nc3cccnc3)ccc12,inconclusive: -107%
16,CCCN1Cc2cccc(C(=O)Nc3ccc4c(c3)OCO4)c2C1=O,inactive: 2.18%
17,CCC(=O)N1CCc2cc(S(=O)(=O)CCC(=O)N3CCN(c4ccc(F)cc4)CC3)ccc21,inactive: -4.41%
18,CC1(C)CC(=O)C(C=Nc2cccc(/N=C/C3=C(O)CC(C)(C)CC3=O)n2)=C(O)C1,inconclusive: -94.4%
19,COc1ccc(-n2cc(CNCCc3cscn3)c(-c3ccccc3Cl)n2)cc1,active: 51.5%
20,COc1ccccc1NC(=O)/C(=C\c1cccs1)NC(=O)c1ccco1,inactive: -2.43%
21,CCC(C)[C@H](NC(=O)[C@H](Cc1ccccc1)n1c(=O)[nH]c2ccccc2c1=O)C(=O)N1CCC[C@@H]1C(=O)O (stereo partly drawn),inconclusive: -359%
22,CC(Oc1ccccc1)C(=O)Nc1ccc(S(=O)(=O)N2CCN(C)CC2)cc1 (stereo not drawn),inconclusive: -32.5%
